The assay has as its target hNDRG1*C, the C-terminal intrinsically disordered region of human NDRG1 (human). In words: SEC-MALS; SEC-MALS-QELS; hNDRG1*C 300 uL at 1.2 mM on Superdex 75 10/300 GL; 20 mM HEPES pH 7.5, 150 mM NaCl, 1 mM TCEP; room temperature, 0.5 mL/min; without or with Ni(II); both purified. On the technique in general: SEC sorts molecules by how far they enter the pores of the column.

These are yes or no findings as the source states them, for the method shown.

B1: hNDRG1*C, the C-terminal intrinsically disordered region of human NDRG1 (domain or fragment)
chain: GMGYMPSASMTRLMRSRTASGSSVTSLDGTRSRSHTSEGTRSRSHTSEGTRSRSHTSEGAHLDITPNSGAAGNSAGPKSMEVSC
On to B1, for which the binding entry is “no binding (tested: 1.2 mM loaded (300 uL))”.

These data come from paper PMC9496542.
